± gives the standard deviation of the averaged measurements. Only a part is listed here, and it is no random draw.
Compound: Nc1ncnc2c1ncn2[C@@H]1O[C@H](COP(=O)(O)OP(=O)(O)NP(=O)(O)O)[C@@H](O)[C@H]1O [adenylyl imidodiphosphate]
Experiment: NP40-soluble protein abundance relative to vehicle (solubility fold change) (ratio); higher = more soluble protein in presence of AMP-PNP
Method in brief: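 Crude Jurkat lysate, prepared by Dounce homogenisation, was exposed to eight concentrations from 0.1 to 10 mM for 10 min at room temperature and then 3 min at 37 °C. Solubilisation used 0.8% NP40 with benzonase for 60 min at 4 °C, followed by ultracentrifugation and TMT labelling of the supernatant for LC-MS/MS. After vsn normalisation of intensities, each value is the fold change against the detergent-processed vehicle within each replicate, across three independent experiments.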

Amino acid sequences for entries named in this document (tags omitted). A change or cut given only in a name is not applied to a line headed by its entry.
UniProt Q8N6M0: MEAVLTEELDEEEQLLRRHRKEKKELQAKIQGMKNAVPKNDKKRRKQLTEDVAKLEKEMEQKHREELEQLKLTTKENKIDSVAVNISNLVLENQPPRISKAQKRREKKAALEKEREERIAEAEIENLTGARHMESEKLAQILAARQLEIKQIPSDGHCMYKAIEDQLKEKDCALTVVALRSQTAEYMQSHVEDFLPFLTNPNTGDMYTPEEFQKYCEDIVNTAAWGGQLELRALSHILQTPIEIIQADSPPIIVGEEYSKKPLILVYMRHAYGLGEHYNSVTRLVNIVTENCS
UniProt Q8N9F7: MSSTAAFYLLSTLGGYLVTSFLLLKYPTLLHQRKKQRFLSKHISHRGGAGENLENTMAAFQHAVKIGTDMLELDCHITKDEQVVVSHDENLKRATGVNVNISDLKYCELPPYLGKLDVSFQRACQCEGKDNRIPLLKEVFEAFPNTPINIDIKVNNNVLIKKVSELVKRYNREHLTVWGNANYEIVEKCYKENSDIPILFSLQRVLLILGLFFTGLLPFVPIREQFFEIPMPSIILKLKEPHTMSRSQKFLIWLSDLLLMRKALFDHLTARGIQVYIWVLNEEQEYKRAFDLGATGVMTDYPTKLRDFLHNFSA
UniProt Q8IZH2: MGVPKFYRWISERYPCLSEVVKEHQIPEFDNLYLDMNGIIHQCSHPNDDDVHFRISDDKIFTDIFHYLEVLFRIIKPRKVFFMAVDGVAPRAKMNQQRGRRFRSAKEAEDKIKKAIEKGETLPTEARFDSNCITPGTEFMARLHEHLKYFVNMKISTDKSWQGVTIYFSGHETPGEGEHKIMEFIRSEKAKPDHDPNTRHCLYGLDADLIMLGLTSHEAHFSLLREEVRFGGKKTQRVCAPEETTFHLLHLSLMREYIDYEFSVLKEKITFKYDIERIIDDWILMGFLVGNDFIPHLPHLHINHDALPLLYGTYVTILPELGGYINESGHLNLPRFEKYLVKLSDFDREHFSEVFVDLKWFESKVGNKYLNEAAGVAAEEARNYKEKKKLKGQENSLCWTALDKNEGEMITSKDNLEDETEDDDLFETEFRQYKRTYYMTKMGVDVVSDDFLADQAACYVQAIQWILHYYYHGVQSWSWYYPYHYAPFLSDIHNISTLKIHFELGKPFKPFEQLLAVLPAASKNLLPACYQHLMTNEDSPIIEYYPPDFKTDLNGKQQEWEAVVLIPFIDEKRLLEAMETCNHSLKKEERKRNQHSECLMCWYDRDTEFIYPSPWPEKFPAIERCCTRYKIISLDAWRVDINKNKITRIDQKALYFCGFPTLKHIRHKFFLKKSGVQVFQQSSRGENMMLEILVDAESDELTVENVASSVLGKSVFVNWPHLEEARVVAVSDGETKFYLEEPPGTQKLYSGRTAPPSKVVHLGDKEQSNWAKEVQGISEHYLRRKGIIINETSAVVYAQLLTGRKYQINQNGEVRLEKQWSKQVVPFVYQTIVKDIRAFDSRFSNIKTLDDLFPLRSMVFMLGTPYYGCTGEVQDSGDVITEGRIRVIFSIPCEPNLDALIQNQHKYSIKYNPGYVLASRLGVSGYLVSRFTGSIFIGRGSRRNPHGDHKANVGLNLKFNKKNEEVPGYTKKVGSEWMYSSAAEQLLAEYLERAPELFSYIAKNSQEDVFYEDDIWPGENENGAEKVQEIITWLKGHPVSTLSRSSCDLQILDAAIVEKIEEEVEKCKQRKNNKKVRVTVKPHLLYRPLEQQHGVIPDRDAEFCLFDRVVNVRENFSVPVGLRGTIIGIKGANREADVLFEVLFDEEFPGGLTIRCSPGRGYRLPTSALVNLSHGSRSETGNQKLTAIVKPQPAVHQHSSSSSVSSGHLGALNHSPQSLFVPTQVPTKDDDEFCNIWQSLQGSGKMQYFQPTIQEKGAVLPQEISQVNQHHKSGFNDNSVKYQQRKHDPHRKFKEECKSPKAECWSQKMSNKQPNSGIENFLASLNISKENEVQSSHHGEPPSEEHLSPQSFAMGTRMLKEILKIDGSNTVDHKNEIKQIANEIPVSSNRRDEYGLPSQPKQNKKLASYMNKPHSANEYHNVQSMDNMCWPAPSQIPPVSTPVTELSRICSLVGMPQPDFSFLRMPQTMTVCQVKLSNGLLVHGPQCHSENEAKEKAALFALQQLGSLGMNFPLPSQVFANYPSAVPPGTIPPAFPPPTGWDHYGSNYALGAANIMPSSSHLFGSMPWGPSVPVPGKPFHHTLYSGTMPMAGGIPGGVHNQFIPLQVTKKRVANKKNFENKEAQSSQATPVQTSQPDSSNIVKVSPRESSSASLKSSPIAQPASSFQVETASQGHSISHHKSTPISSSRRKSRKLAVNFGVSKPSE
UniProt Q86SF2: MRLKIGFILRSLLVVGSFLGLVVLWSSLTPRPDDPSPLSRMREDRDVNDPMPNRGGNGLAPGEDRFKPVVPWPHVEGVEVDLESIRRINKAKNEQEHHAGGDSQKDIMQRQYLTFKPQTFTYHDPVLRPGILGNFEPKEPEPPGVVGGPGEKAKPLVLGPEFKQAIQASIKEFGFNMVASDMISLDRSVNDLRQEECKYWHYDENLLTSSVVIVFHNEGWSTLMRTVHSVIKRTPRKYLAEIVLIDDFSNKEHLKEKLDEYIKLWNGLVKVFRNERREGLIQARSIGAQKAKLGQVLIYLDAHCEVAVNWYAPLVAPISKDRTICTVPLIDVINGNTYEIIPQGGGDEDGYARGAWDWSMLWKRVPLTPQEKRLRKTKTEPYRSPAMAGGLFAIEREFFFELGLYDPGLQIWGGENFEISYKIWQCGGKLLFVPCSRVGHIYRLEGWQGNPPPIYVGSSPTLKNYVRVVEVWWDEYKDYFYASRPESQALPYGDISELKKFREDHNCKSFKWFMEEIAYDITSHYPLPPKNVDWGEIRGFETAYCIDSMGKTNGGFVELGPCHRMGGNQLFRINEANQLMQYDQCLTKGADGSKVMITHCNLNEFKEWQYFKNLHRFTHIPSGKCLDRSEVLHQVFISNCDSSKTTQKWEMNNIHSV
UniProt Q86UU1: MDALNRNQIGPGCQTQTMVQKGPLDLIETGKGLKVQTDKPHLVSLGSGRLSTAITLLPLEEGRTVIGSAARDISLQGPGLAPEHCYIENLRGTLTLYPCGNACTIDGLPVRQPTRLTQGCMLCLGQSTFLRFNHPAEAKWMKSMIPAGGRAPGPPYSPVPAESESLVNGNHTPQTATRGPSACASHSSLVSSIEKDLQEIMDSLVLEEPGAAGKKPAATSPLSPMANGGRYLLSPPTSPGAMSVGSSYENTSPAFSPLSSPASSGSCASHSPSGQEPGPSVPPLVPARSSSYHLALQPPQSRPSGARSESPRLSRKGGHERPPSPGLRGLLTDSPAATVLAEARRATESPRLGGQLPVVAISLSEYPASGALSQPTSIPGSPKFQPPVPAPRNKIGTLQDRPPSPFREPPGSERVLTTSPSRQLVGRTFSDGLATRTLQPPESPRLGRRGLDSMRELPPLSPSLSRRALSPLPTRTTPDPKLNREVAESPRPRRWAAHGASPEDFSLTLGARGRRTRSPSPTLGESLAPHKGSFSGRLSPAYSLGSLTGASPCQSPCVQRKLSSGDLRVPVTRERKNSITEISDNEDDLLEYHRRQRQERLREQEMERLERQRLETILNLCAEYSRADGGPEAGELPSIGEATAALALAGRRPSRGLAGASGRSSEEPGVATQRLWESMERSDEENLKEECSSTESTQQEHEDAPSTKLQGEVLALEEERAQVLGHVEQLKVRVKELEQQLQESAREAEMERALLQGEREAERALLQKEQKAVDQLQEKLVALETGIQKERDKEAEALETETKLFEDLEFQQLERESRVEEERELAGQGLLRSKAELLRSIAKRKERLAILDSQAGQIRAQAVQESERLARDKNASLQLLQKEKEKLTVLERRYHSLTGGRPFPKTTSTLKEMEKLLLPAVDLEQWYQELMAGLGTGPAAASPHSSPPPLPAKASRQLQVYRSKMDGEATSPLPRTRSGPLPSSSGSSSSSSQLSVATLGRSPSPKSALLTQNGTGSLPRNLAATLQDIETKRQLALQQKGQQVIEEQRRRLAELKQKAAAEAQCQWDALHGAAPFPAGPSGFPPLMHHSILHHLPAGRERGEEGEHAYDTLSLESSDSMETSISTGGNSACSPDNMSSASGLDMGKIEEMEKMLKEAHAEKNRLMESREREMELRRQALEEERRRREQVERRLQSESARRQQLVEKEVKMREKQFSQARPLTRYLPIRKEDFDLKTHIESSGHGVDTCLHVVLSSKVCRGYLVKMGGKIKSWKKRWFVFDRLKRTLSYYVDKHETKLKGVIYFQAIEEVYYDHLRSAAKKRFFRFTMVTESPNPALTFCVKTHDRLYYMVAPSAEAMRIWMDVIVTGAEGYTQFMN
UniProt Q86V59: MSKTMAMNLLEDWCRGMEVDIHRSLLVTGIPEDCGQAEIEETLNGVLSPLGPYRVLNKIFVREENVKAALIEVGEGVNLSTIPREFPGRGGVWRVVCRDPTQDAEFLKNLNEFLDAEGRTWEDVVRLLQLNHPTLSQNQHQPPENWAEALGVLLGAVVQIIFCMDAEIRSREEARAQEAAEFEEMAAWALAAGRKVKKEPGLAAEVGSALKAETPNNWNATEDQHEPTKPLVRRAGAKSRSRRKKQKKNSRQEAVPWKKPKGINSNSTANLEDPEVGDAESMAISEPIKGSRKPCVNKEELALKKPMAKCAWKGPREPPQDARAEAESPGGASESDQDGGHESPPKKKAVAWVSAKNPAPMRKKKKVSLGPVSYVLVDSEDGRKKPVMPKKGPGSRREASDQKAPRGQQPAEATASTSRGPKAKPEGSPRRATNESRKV
UniProt Q8N766: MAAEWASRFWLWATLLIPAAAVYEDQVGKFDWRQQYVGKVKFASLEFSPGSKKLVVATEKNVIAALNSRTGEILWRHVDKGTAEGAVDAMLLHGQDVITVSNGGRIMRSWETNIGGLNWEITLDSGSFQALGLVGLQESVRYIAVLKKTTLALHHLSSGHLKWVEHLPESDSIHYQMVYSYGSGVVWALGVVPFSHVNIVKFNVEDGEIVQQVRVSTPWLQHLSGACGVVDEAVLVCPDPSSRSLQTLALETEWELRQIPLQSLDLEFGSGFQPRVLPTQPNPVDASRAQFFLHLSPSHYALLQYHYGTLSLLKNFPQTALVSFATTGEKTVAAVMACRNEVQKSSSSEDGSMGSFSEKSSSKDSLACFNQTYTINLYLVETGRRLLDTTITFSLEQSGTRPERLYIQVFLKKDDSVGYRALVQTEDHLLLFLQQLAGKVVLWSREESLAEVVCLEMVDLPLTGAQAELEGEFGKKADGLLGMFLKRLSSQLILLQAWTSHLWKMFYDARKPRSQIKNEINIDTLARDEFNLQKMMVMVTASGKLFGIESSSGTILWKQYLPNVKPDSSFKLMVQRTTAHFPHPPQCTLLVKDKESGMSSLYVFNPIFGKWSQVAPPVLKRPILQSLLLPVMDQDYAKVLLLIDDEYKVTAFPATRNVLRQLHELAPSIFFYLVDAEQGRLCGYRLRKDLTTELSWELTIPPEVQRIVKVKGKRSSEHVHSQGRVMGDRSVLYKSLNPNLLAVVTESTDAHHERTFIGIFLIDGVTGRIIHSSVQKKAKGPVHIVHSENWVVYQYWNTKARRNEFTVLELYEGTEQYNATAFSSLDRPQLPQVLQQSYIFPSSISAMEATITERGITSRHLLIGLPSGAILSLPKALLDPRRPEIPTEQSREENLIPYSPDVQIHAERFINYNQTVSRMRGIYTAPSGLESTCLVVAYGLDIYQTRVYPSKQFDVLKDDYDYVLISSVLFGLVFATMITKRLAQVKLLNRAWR
UniProt Q7Z6K3: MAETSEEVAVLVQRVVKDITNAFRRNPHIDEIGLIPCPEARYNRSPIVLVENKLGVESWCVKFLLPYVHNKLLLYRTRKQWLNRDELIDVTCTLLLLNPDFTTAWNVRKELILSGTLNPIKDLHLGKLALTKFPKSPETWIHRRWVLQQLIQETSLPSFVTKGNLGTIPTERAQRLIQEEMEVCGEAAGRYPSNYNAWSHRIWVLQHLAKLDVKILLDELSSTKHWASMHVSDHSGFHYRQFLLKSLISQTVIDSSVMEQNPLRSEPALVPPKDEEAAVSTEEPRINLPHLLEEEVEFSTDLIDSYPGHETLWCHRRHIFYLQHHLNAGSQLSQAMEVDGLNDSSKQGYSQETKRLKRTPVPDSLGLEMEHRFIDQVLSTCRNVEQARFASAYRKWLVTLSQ
UniProt Q8N2F6: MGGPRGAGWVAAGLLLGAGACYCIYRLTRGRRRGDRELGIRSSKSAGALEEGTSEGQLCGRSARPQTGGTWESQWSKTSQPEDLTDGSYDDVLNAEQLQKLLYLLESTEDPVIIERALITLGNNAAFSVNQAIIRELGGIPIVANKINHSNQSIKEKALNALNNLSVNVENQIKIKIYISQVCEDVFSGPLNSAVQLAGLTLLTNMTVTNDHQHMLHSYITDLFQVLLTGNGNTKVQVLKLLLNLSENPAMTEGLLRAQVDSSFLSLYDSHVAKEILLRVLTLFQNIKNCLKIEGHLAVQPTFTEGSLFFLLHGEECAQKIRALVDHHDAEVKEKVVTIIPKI

Target	NP40-soluble protein abundance (concentration: 1mM)	NP40-soluble protein abundance (concentration: 2mM)	NP40-soluble protein abundance (concentration: 4mM)	NP40-soluble protein abundance (concentration: 6mM)	NP40-soluble protein abundance (concentration: 8mM)	NP40-soluble protein abundance (concentration: 10mM)
MICALL1 (UniProt Q8N3F8)	1 ± 0.025	1.03 ± 0.089	0.999 ± 0.026	0.982 ± 0.019	0.962 ± 0.0098	0.983 ± 0.018
UniProt Q8N6M0 and related entries	1.04 ± 0.012	1.07 ± 0.027	1.07 ± 0.019	1.07 ± 0.013	1.08 ± 0.024	1.07 ± 0.045
UniProt Q8N108 and related entries	1.02 ± 0.021	1.09 ± 0.073	1.037 ± 0.005	1.02 ± 0.011	0.997 ± 0.014	1.02 ± 0.026
GDPD1 (UniProt Q8N9F7)	0.996 ± 0.013	0.994 ± 0.049	1.04 ± 0.04	0.994 ± 0.025	1.03 ± 0.029	1.01 ± 0.03
UniProt Q8IWD4 and related entries	1.038 ± 0.0055	1.04 ± 0.029	1.01 ± 0.027	0.984 ± 0.014	0.991 ± 0.027	0.953 ± 0.02
UniProt Q7Z7F0	1.01 ± 0.049	1.07 ± 0.046	1.01 ± 0.048	1.064 ± 0.0095	1.03 ± 0.014	1.09 ± 0.04
UniProt Q8IXW5 and related entries	1.06 ± 0.052	1.05 ± 0.034	1.03 ± 0.04	0.988 ± 0.096	0.961 ± 0.059	0.977 ± 0.062
CACUL1 (UniProt Q86Y37)	1.03 ± 0.037	1.04 ± 0.017	1.04 ± 0.027	1 ± 0.014	1.02 ± 0.013	0.986 ± 0.025
ERI1 (UniProt Q8IV48)	0.98 ± 0.062	0.981 ± 0.047	1.03 ± 0.07	1.07 ± 0.036	1.12 ± 0.06	1.13 ± 0.072
UniProt Q8IUQ4 and related entries	0.984 ± 0.017	1.01 ± 0.0068	0.9931 ± 0.0098	0.996 ± 0.015	0.984 ± 0.01	0.9878 ± 0.0038
UniProt Q8IZH2 and related entries	1.03 ± 0.013	0.981 ± 0.064	1.03 ± 0.022	0.993 ± 0.06	1 ± 0.037	1 ± 0.072
UniProt Q8NB78	0.99 ± 0.033	0.996 ± 0.011	1.02 ± 0.015	0.977 ± 0.01	1.015 ± 0.005	0.991 ± 0.039
GALNT7 (UniProt Q86SF2)	0.995 ± 0.014	0.92 ± 0.11	0.985 ± 0.04	0.956 ± 0.024	0.969 ± 0.034	0.92 ± 0.026
UniProt Q86UU1 and related entries	1.01 ± 0.025	0.992 ± 0.042	0.971 ± 0.018	0.998 ± 0.034	0.996 ± 0.049	0.973 ± 0.035
UniProt Q86WQ0 and related entries	1.07 ± 0.041	1.08 ± 0.046	1.05 ± 0.019	1.07 ± 0.026	1.05 ± 0.025	1.07 ± 0.042
UniProt Q86XP3 and related entries	1.02 ± 0.011	1.03 ± 0.018	1.06 ± 0.017	1.04 ± 0.023	1.071 ± 0.01	1.1 ± 0.027
CAND1 (UniProt Q86VP6)	0.971 ± 0.024	0.947 ± 0.03	0.983 ± 0.035	1.01 ± 0.084	1.03 ± 0.044	0.992 ± 0.058

Part of the list above, as comma-separated lines:
Target,NP40-soluble protein abundance (concentration: 1mM),NP40-soluble protein abundance (concentration: 2mM),NP40-soluble protein abundance (concentration: 4mM),NP40-soluble protein abundance (concentration: 6mM),NP40-soluble protein abundance (concentration: 8mM),NP40-soluble protein abundance (concentration: 10mM)
MICALL1 (UniProt Q8N3F8),1 ± 0.025,1.03 ± 0.089,0.999 ± 0.026,0.982 ± 0.019,0.962 ± 0.0098,0.983 ± 0.018
UniProt Q8N6M0 and related entries,1.04 ± 0.012,1.07 ± 0.027,1.07 ± 0.019,1.07 ± 0.013,1.08 ± 0.024,1.07 ± 0.045

More results follow.

Target	NP40-soluble protein abundance (concentration: 1mM)	NP40-soluble protein abundance (concentration: 2mM)	NP40-soluble protein abundance (concentration: 4mM)	NP40-soluble protein abundance (concentration: 6mM)	NP40-soluble protein abundance (concentration: 8mM)	NP40-soluble protein abundance (concentration: 10mM)
UniProt Q8N490 and related entries	1.01 ± 0.035	0.9967 ± 0.0088	0.988 ± 0.021	0.995 ± 0.029	0.974 ± 0.027	1 ± 0.018
UniProt Q86V59 and related entries	1.02 ± 0.032	1.04 ± 0.025	1.06 ± 0.017	1.03 ± 0.0049	1.07 ± 0.029	1.05 ± 0.033
SETD3 (UniProt Q86TU7)	0.989 ± 0.057	0.974 ± 0.016	1.03 ± 0.03	1.05 ± 0.038	1.08 ± 0.034	1.05 ± 0.044
UniProt Q86UY8 and related entries	0.99 ± 0.031	0.97 ± 0.065	0.976 ± 0.045	0.958 ± 0.035	1.01 ± 0.028	0.972 ± 0.04
PALB2 (UniProt Q86YC2)	0.988 ± 0.015	0.993 ± 0.032	0.9748 ± 0.0057	0.9809 ± 0.0065	0.995 ± 0.021	0.9869 ± 0.0046
UniProt Q8IXI2-2|Q8IXI2-3	0.97 ± 0.013	0.935 ± 0.088	0.998 ± 0.019	1.04 ± 0.051	1.04 ± 0.056	0.994 ± 0.05
CLYBL (UniProt Q8N0X4)	1.01 ± 0.016	0.978 ± 0.013	1 ± 0.02	0.982 ± 0.043	0.9692 ± 0.0037	0.9819 ± 0.0062
UniProt Q8IZ73 and related entries	1.04 ± 0.019	1.05 ± 0.04	1.04 ± 0.029	1 ± 0.015	0.9969 ± 0.0043	0.984 ± 0.016
PTGR2 (UniProt Q8N8N7)	1.01 ± 0.049	0.998 ± 0.064	0.982 ± 0.026	0.978 ± 0.012	0.972 ± 0.04	0.978 ± 0.044
TXNDC5 (UniProt Q8NBS9)	0.997 ± 0.027	1.01 ± 0.039	0.976 ± 0.025	0.98 ± 0.022	0.965 ± 0.04	0.984 ± 0.049
UniProt Q8N766 and related entries	0.967 ± 0.032	0.947 ± 0.017	0.98 ± 0.046	1.06 ± 0.082	1.08 ± 0.066	1.06 ± 0.076
GPD1L (UniProt Q8N335)	1 ± 0.029	0.992 ± 0.043	0.979 ± 0.045	0.95 ± 0.012	0.938 ± 0.024	0.961 ± 0.051
UniProt Q86YC3	0.9427 ± 0.0038	0.964 ± 0.0084	0.98962 ± 0.00011	0.987 ± 0.02	0.981 ± 0.021	0.975 ± 0.018
UniProt Q8NBL1	1.01 ± 0.016	1.02 ± 0.06	1 ± 0.048	1.02 ± 0.046	1.02 ± 0.016	1.03 ± 0.037
UniProt Q86VR2	0.989 ± 0.0052	0.966 ± 0.024	0.977 ± 0.025	0.976 ± 0.015	0.9994 ± 0.002	0.952 ± 0.01
PTAR1 (UniProt Q7Z6K3)	0.997 ± 0.029	1 ± 0.04	1.02 ± 0.018	1 ± 0.012	1.01 ± 0.029	0.985 ± 0.025
UniProt Q8N2F6 and related entries	0.993 ± 0.045	1.08 ± 0.11	0.99 ± 0.056	1 ± 0.051	0.969 ± 0.066	0.94 ± 0.071

— the supplement of paper PMC6411743
